Test results reported in article PMC7804115.
Results are given in words; binding and its absence hold for the method and conditions named. In cells and extracts the contact can be indirect. Some binding calls cover weakened binding; strength is not graded here.

Biological target: mouse Jaw1 long form (Ms LJaw1) (mouse) (UniProt Q60664)
Assay: co-IP; FLAG Ms LJaw1 co-expressed with GFP-fused Jaw1 or mutants in HEK293 cells for 24 h; lysis in 50 mM Tris-HCl pH 7.6, 150 mM NaCl, 0.5% NP-40; anti-FLAG tag antibody beads, 4 °C, 2 h; western blot with anti-FLAG and anti-GFP antibodies

B1: mouse Jaw1 long form (Ms LJaw1) (protein, UniProt Q60664 1-539)
chain: MLCVKGPPEQEPEDGALDVTRGCQCPLPTEDSILGQELLDCTRMNEDQSTDENGAGHFYSESPSQLREYLTQPSSEQTSSSESTVTSSESGSDILHMASGDLDCKPLCEKEEEARAASAMQGTSLAPAAYGDYTSVGVAKAASQLEAGEELRTTENGGKGSAPGETEISMPPKASVKLVNFQQSENTSANEKEVEAEFLRLSLGLKCDWFTLEKRVKLEERSRDLAEENLKKEITNCLKLLESLTPLCEEDNQAQEIVKKLEKSIVLLSQCTARVASRAEMLGAINQESRVSRAVEVMIQHVENLKRMYAKEHAELEDLKQALLQNDRSFNSLPDEDDCQIKKRSSSLNSKPSSLRRVTIASLPRNLGNVGLVSGMENNDRFSRRSSSWRILGTKQGEHRPSLHRFISTYSWADAEDERSDVKARDAPEPQGEEAVERTRKPSLSERRSSTLAWDRGTICSSVASWVTHLQASFRRANRALWLTGLIIILIAALMSFLTGQLFQTAVEAAPTQEGDSWLSLEHILWPFTRLGHDGPPPV
  binding: binds
